{"source": "patent US20020001840A1", "binders": {"B1": {"name": "full-length ADAM 23 HA-tagged at the COOH-terminus, on transfected HeLa cells (protein, not shown: small tags and cut ends)", "chain": "AVNPSRGIFEEMKYLELMIVNDHKTYKKHRSSHAHTNNFAKSVVNLVDSIYKEQLNTRVVLVAVETWTEKDQIDITTNPVQMLHEFSKYRQRIKQHADAVHLISRVTFHYKRSSLSYFGGVCSRTRGVGVNEYGLPMAVAQVLSQSLAQNLGIQWEPSSRKPKCDCTESWGGCIMEETGVSHSRKFSKCSILEYRDFLQRGGGACLFNRPTKLFEPTECGNGYVEAGEECDCGFHVECYGLCCKKCSLSNGAHCSDGPCCNNTSCLFQPRGYECRDAVNECDITEYCTGDSGQCPPNLHKQDGYACNQNQGRCYNGECKTRDNQCQYIWGTKAAGSDKFCYEKLNTEGTEKGNCGKDGDRWIQCSKHDVFCGFLLCTNLTRAPRIGQLQGEIIPTSFYHQGRVIDCSGAHVVLDDDTDVGYVEDGTPCGPSMMCLDRKCLQIQALNMSSCPLDSKGKVCSGHGVCSNEATCICDFTWAGTDCSIRDPVRNLHPPKDEGPKGPSATNLIIGSIAGAILVAAIVLGGTGWGFKNVKKRRFDPTQQGPI"}}, "target": "purified αvβ3 integrin", "assay": "adhesion of transfected HeLa cells to wells coated with purified αvβ3 integrin", "note": "These are yes or no findings as the source states them, for the method shown. A result given as binding can be weak or reduced; the word gives no strength. Tags and fused reporters may be left off the sequences shown."}
{"binder": "B1", "values": [{"measurement": "binding", "result": "binds"}]}
